The full ranking holds about 3,200 compounds; the median of “TSA(with NAD+) / Primary screening (TSA) / delta Tm (K)” is about -0.04, and the highest 2% start at about 0.37. The list shows a part of the results.
biological target: NAD-dependent deacetylase Sirtuin 1 (human, UniProt Q96EB6); assay: primary screen, delta tm; set-up: single well (n = 1, as 'the same TSA'); details: 10 µM

Chains of the proteins cited; added tags and fusions are not shown. Residues count along the entry.
UniProt Q96EB6, 2-747 limits assumed: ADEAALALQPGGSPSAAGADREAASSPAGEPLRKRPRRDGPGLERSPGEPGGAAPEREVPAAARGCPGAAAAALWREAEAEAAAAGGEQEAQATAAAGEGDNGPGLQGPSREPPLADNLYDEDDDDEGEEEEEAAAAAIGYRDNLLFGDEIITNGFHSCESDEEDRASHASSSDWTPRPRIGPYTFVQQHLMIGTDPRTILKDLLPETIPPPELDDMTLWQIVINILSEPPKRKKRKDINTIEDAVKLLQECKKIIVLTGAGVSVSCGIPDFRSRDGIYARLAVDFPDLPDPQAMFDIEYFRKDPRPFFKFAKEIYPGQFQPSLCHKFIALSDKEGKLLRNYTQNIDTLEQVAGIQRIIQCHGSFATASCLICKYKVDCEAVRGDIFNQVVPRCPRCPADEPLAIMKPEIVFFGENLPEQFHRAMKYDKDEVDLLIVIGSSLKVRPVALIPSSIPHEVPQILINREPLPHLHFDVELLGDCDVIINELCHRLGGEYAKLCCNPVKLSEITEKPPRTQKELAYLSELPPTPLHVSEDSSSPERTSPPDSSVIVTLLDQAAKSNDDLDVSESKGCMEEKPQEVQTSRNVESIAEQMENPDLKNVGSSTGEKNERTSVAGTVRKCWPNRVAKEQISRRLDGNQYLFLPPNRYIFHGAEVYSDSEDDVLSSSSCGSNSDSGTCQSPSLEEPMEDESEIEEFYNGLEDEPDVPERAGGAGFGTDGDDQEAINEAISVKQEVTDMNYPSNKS

| Compound | TSA(with NAD+) / Primary screening (TSA) / delta Tm (K) |
| --- | --- |
| O=C(O)CC(O)C(=O)O (centres unmarked) | 0.02 |
| O=[N+]([O-])c1ccc(CSc2nc3ccccc3c3nc(CCc4c[nH]c5ccccc45)nn23)cc1 | 0.17 |
| CN(C)C(=O)c1ccc(F)cc1Br | -0.09 |
| Cn1cc(S(=O)(=O)N2CCN(C(=O)CCNC(=O)c3ccsc3)CC2)cc1C(N)=O | -0.02 |
| Cc1cocc1CCCO | -0.13 |
| Cc1cccc(NC(=O)CCNC(=O)C2=CCCCCC2)n1 | -0.05 |
| Cc1nc2cc(C(=O)O)ccc2[nH]1 | -0.22 |
| CN(c1cccc(Cl)c1)S(=O)(=O)c1cccc(C(=O)N2CCc3[nH]c4ccccc4c3C2)c1 | 0.11 |
| O=C(Nc1ccc(F)cc1F)C(F)C(F)(F)F (centres unmarked) | -0.23 |
| O=C(Cc1csc(-c2ccco2)n1)N(C/C=C/c1ccccc1)c1ccc2c(c1)OCCO2 | -0.06 |
| Cc1ccc(-c2nnc(SCC(=O)NC(C)C(C)C)n2N)cc1 (centres unmarked) | -0.01 |
| CC(C)(N)CCCN | -0.26 |
| C=CCOc1cccc(C2C(C(=O)c3cccs3)=C(O)C(=O)N2CCCN2CCOCC2)c1 (centres unmarked) | 0.17 |
| O=c1[nH]c(=O)c2cc(S(=O)(=O)N3CCc4ccccc4C3Cc3ccccc3)ccc2[nH]1 (centres unmarked) | 0.08 |
| CN(c1ccc(C(N)=O)cc1)S(=O)(=O)c1ccc(F)c(C(F)(F)F)c1 | -0.01 |
| CN(C)C(CNC(=O)C1CCCc2ccccc21)c1ccccc1 (centres unmarked) | -0.03 |
| CCCNC(=O)c1ccc2[nH]c(C)c(C)c2c1 | 0.05 |
| COc1ccc(CCNCc2ccc(OCc3ccccc3)cc2)cc1 | -0.13 |
| CCCOc1ccc(C(=O)C2=C(O)C(=O)N(CCCN3CCOCC3)C2c2ccc(C)o2)cc1 (centres unmarked) | -0.03 |
| CCCCCOc1ccc(C(=O)CCC(=O)OCC(=O)Nc2cccc(S(=O)(=O)/N=C3/CCCCCN3)c2)cc1 | 0.06 |
| NC(=O)C1CCN(C(=O)c2c[nH]c3ccc(Br)cc23)CC1 | -0.05 |

| Compound | TSA(with NAD+) / Primary screening (TSA) / delta Tm (K) |
| --- | --- |
| O=C(Cc1cccc2ccccc12)Nc1ccccc1Cc1ccccc1 | 0.07 |
| CCONC(=O)c1cccc(I)c1 | -0.08 |
| COc1ccc(CCn2c(C)cc(C(=O)COC(=O)C34CC5CC(CC(O)(C5)C3)C4)c2C)cc1 | -0.19 |
| CCOCc1cn(CC(=O)c2ccc(OC)cc2)c(C)nc1=N | -0.08 |
| CCOc1ccc(Oc2ccc(NS(=O)(=O)c3cc(C(=O)O)ccc3Cl)cc2)cc1 | -0.08 |
| Cn1ccc(NC(=O)CSc2ccc3c4c(cccc24)C(=O)c2ccccc2-3)n1 | 0.02 |
| Cc1cc(C(=O)NCc2nnc3ccccn23)c(C)n1-c1ccccc1 | -0.02 |
| O=C(CSC1CCS(=O)(=O)C1)Nc1nnc(SCc2c(Cl)cccc2Cl)s1 (centres unmarked) | -0.18 |
| CCC(C)C(C)N (centres unmarked) | -0.06 |
| Cc1ccc(-c2noc(C(C)N3CCN(c4nc(C(F)(F)F)nc5ccccc45)CC3)n2)cc1 (centres unmarked) | 0.15 |
| O=C1CN(c2ncc(Br)cn2)C2CCCCC2N1 (centres unmarked) | 0.13 |
| CC(=O)N(c1ccc(C)c(C)c1)c1nc(/C=C(/CC(=O)O)c2nc3ccccc3s2)cs1 | 0.06 |
| NC(=O)Cc1ccc(NC(=O)c2cc(Br)ccc2Cl)cc1 | 0.06 |
| CCCc1nnn[nH]1 | -0.02 |
| CC1CCC(C(N)=O)CN1Cc1nc2c(F)cccc2[nH]1 (centres unmarked) | -0.01 |
| CC([NH3+])C(C)[NH3+] (centres unmarked) | -0.06 |
| O=C1c2cccc3cccc(c23)N1Cc1cc(-c2cccs2)on1 | -0.01 |
| COc1cc(/C=C(/C#N)C(=O)NCCc2cnn(-c3ccccc3)c2)ccc1O | -0.01 |
| CN(c1ccc2ccccc2n1)S(=O)(=O)c1cc(C(N)=O)n(C)c1 | 0.06 |
| O=C(O)c1ccc2[nH]c(C(F)(F)F)nc2c1 | -0.14 |
| C=CCN(C(=O)CCCc1nc(C(C)(C)C)no1)c1nc2c(s1)CCCC2 | -0.22 |

| Compound | TSA(with NAD+) / Primary screening (TSA) / delta Tm (K) |
| --- | --- |
| CC(SCC(O)CO)c1nc2ccccc2c(=O)[nH]1 (centres unmarked) | -0.06 |
| CC1CC1c1ccc(/C=C/C(=O)Nc2cc(C(N)=O)ccc2N2CCCC2)o1 (centres unmarked) | -0.12 |
| Cc1nc(N2CCN(Cc3nc(-c4ccccc4)no3)CC2)c2c3c(sc2n1)CC(C)CC3 (centres unmarked) | 0.09 |
| CCc1ncnc(N2CCCC(c3cc(C(N)=O)[nH]n3)C2)c1F (centres unmarked) | -0.16 |
| CN(C)C(CNC(=O)c1ccc2c(c1)OCCCO2)c1ccco1 (centres unmarked) | 0.01 |
| COCCCNCc1ccccc1 | -0.09 |
| O=C(NCC(O)c1ccccc1)c1ccc2c(=O)[nH]c(S)nc2c1 (centres unmarked) | -0.13 |
| CCC(NC(=O)C1=COCCC1)C1CN(Cc2ccccc2)CCO1 (centres unmarked) | -0.23 |
| COc1cccc(CN(C(=O)COC(=O)c2ccc(NC(C)=O)cc2)C23CC4CC(CC(C4)C2)C3)c1 | -0.13 |
| O=C(COC(=O)C1(c2ccc(Cl)cc2)CCCC1)Nc1cc(S(=O)(=O)N2CCOCC2)ccc1N1CCCC1 | -0.16 |
| CCC(O)CN(C)Cc1ccc2ccccc2c1 (centres unmarked) | -0.03 |
| Cc1ccc2c(n1)nn1c(O)cc(C)nc21 | -0.18 |
| O=C(Cc1c[nH]c2ccccc12)N1CCc2[nH]c3ccccc3c2C1 | 0.37 |
| CCN(C(=O)CSc1nnc(-c2sc3ccccc3c2Cl)o1)C1CCS(=O)(=O)C1 (centres unmarked) | 0.07 |
| Cc1ccc2[nH]c3c(c2c1)CNCC3 | -0.06 |
| O=C(Cn1cnc2sccc2c1=O)Nc1ccccc1Oc1ccccc1 | -0.09 |
| Cc1csc2c(N3CCN4CCC3CC4)ncnc12 | -0.11 |
| O=C1c2ccccc2C(=O)N1Cc1cc(=O)n2ccccc2n1 | -0.03 |
| Cc1cc(N2CCN(CC(=O)Nc3sc4c(c3C(N)=O)CCCC4)CC2)nc(C(C)C)n1 | -0.09 |
| O=c1[nH]cnc2c1cnn2-c1ccncc1 | -0.23 |

Reformatted with bars between the fields: part of the list above.
Compound | TSA(with NAD+) / Primary screening (TSA) / delta Tm (K)
C=CCN(C(=O)CCCc1nc(C(C)(C)C)no1)c1nc2c(s1)CCCC2 | -0.22
CC(SCC(O)CO)c1nc2ccccc2c(=O)[nH]1 (centres unmarked) | -0.06
CC1CC1c1ccc(/C=C/C(=O)Nc2cc(C(N)=O)ccc2N2CCCC2)o1 (centres unmarked) | -0.12
Cc1nc(N2CCN(Cc3nc(-c4ccccc4)no3)CC2)c2c3c(sc2n1)CC(C)CC3 (centres unmarked) | 0.09

From article PMC6925144, “A prospective compound screening contest identified broader inhibitors for Sirtuin 1” (Scientific Reports, 2019)
